From publication PMC12572689 come the findings set out here.

Amino acid sequences for entries named in this document (tags omitted). Residues count along the entry.
UniProt P00004, 2-105: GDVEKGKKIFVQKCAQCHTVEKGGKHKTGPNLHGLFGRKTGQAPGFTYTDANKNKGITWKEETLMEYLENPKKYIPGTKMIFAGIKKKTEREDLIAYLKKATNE

pKd: −log10 of the molar value. Construct, isoform or probe ends are uncertain for at least one entry.

The data set concerns the target cytochrome c (Equus caballus (equine heart)) (UniProt P00004). As to the kind of experiment: absorption spectroscopy. The note with it: cited value, cyt c source of cited work not stated; commercial protein; single-stranded DNA.

Broadly, the pKd is the negative decadic logarithm of the Kd, by convention in mol/L. On to “AGTGTGAAATATCTAAACTAAATGTGGAGGGTGGGACGGGAAGAAGTTTATTTTTCACACT [Apt61]”, for which the pKd was 5.34.
